Results are given in words; binding and its absence hold for the method and conditions named. In cells and extracts the contact can be indirect. Here binding means that the protein was enriched with, or labelled near, the bait; the list need not be complete.
These substances were tested against Biotin-FOXC1 (mouse) (UniProt Q61572) (assay: affinity purification with mass spectrometry; streptavidin-agarose precipitation of biotinylated FOXC1 from nuclear extract of stable HEK293T cells (293T-Biotin-FOXC1); IP350 buffer (350 mM NaCl, 20 mM Tris-HCl pH 7.5, 0.5% NP40, 1 mM EDTA, 10% glycerin); SDS-PAGE, LC-ESI-MS/MS; proteins of the 293T-Biotin control deducted).

Chains of the proteins cited; added tags and fusions are not shown. Residues count along the entry.
UniProt P32121: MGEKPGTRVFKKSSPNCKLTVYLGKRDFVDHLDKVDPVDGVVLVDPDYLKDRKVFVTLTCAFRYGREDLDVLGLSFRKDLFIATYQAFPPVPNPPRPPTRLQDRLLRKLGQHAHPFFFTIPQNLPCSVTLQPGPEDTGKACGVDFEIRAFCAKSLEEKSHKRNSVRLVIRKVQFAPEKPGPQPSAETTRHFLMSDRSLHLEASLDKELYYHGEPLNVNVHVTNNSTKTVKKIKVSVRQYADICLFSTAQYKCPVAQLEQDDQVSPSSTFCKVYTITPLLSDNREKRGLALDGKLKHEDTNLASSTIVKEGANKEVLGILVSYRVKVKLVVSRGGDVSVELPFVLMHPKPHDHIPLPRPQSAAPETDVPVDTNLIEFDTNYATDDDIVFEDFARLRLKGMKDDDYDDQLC
UniProt Q07021, residues 74-282: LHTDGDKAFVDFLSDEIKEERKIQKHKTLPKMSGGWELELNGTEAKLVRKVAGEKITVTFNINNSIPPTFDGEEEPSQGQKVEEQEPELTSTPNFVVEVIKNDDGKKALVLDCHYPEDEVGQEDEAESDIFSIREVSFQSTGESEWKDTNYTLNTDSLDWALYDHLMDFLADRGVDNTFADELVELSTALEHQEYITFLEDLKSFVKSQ
UniProt P08238: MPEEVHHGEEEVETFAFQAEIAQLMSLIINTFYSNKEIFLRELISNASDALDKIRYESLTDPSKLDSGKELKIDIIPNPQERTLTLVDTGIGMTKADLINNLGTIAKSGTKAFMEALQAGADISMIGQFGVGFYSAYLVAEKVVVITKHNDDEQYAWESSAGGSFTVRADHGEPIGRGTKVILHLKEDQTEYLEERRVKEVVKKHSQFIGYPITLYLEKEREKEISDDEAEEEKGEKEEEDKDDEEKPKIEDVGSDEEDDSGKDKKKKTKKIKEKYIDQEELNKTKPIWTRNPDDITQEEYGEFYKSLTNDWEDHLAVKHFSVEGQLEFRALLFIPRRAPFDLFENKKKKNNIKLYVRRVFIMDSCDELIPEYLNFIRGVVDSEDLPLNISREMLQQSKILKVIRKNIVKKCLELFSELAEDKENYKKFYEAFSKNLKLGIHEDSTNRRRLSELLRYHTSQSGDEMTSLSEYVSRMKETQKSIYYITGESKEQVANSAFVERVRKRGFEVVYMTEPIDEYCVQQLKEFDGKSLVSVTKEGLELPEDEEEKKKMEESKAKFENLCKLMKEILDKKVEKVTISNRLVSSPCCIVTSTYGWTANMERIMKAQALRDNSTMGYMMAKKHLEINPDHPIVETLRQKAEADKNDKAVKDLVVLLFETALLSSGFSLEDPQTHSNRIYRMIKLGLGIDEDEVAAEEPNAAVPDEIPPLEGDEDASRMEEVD
UniProt P11021, residues 19-654: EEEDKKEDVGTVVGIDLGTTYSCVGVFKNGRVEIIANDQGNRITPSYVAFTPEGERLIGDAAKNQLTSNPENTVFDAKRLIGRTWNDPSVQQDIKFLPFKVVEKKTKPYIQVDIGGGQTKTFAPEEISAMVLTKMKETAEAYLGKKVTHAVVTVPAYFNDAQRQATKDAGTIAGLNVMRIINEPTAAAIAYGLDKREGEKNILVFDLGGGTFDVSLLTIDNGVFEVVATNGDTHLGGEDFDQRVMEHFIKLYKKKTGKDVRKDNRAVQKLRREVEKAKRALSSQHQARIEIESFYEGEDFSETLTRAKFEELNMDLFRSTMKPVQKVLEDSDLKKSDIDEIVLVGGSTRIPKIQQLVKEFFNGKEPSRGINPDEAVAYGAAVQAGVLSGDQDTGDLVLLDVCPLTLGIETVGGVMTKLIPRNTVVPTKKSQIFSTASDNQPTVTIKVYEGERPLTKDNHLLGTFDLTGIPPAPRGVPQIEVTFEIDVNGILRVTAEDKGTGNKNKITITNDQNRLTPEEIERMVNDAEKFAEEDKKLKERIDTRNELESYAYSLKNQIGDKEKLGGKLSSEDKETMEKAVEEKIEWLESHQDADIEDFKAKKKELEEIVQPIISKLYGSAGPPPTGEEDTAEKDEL
UniProt Q9P032: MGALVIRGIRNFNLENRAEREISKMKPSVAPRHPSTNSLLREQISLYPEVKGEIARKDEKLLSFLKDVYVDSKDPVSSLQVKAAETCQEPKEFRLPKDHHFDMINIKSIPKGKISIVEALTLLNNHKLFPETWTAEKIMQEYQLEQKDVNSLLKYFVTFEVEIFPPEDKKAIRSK
UniProt O00571: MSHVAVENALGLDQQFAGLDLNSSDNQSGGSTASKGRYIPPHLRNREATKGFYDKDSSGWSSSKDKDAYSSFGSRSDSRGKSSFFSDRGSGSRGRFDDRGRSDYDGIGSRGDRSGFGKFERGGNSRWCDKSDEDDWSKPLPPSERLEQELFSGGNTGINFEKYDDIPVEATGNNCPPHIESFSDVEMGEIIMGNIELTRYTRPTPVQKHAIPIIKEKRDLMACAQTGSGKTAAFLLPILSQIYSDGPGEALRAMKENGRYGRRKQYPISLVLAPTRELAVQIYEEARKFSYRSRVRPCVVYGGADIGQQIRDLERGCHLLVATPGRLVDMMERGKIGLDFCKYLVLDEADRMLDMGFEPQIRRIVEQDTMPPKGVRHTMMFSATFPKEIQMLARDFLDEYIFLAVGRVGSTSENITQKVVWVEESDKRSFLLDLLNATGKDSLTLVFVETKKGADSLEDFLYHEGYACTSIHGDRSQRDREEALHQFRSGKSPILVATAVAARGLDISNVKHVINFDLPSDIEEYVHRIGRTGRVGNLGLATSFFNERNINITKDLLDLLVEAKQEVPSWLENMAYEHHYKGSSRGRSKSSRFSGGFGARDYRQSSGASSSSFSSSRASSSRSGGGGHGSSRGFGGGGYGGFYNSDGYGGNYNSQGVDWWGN
UniProt O43143: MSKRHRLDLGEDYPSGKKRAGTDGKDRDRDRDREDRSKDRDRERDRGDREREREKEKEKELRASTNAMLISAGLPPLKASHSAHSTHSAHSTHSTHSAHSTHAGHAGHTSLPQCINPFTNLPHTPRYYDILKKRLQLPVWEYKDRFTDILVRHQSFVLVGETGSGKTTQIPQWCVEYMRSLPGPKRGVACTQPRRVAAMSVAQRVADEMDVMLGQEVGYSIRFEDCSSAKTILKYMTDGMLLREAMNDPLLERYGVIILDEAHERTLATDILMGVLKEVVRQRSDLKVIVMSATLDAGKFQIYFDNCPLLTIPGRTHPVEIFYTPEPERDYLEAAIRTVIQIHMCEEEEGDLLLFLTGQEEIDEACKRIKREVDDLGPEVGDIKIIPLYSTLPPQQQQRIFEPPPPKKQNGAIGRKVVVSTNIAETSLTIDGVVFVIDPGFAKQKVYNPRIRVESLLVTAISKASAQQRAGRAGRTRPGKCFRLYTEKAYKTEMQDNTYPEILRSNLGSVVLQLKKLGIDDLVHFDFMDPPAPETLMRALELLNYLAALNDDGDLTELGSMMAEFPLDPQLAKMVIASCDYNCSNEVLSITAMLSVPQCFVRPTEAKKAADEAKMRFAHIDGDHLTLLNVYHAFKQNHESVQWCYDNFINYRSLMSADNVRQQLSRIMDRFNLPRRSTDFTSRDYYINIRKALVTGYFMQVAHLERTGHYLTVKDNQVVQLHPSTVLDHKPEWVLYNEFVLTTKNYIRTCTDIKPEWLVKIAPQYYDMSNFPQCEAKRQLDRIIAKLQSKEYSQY
UniProt P04264: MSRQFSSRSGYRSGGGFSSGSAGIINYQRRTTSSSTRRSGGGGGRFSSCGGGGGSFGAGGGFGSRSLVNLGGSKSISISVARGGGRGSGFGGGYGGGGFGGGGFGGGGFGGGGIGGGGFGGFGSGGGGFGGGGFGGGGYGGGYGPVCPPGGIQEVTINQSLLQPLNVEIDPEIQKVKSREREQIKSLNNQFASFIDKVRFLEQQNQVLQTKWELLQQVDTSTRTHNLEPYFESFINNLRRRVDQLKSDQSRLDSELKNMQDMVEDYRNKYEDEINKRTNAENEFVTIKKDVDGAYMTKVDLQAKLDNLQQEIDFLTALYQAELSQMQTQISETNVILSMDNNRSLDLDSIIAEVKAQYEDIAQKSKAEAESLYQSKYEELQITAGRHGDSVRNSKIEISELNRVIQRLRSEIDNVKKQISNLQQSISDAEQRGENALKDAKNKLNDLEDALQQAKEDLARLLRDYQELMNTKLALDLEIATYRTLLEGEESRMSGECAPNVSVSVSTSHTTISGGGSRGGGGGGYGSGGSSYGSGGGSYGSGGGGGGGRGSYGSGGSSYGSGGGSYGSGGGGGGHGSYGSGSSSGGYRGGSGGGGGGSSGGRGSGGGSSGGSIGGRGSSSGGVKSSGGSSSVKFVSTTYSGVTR
UniProt O14733: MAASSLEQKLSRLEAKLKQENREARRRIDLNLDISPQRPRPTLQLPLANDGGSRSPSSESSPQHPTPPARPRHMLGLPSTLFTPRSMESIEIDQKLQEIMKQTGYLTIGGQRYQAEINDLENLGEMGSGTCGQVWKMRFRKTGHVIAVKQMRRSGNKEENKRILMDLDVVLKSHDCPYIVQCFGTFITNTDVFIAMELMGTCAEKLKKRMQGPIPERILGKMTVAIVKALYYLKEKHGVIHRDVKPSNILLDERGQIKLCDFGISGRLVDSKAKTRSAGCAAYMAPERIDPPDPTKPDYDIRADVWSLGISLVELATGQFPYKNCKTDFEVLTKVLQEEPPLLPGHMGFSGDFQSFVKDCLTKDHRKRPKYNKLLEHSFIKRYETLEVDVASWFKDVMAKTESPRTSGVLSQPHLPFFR
UniProt Q9BU76: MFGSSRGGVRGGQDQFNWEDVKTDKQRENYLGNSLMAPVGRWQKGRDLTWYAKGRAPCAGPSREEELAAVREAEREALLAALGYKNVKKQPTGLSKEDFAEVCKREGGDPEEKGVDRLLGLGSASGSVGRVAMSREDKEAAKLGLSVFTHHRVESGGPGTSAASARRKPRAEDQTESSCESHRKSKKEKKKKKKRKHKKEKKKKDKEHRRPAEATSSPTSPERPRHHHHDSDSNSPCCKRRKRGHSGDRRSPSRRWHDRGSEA
UniProt O00567: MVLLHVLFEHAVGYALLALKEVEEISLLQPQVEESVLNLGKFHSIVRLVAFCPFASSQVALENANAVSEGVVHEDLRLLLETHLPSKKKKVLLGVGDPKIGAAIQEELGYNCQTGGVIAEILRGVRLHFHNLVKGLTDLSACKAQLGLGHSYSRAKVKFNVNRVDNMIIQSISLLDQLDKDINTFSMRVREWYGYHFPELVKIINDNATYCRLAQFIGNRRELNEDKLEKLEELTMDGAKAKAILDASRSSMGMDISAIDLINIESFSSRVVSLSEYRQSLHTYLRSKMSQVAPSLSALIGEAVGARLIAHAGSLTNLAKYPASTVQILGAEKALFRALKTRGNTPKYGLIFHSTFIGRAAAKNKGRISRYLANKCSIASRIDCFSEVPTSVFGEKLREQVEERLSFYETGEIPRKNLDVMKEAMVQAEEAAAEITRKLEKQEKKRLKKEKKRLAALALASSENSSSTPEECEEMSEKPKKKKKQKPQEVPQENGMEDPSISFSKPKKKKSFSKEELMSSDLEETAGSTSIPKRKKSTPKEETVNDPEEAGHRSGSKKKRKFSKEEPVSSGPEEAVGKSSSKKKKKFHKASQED
UniProt O60264: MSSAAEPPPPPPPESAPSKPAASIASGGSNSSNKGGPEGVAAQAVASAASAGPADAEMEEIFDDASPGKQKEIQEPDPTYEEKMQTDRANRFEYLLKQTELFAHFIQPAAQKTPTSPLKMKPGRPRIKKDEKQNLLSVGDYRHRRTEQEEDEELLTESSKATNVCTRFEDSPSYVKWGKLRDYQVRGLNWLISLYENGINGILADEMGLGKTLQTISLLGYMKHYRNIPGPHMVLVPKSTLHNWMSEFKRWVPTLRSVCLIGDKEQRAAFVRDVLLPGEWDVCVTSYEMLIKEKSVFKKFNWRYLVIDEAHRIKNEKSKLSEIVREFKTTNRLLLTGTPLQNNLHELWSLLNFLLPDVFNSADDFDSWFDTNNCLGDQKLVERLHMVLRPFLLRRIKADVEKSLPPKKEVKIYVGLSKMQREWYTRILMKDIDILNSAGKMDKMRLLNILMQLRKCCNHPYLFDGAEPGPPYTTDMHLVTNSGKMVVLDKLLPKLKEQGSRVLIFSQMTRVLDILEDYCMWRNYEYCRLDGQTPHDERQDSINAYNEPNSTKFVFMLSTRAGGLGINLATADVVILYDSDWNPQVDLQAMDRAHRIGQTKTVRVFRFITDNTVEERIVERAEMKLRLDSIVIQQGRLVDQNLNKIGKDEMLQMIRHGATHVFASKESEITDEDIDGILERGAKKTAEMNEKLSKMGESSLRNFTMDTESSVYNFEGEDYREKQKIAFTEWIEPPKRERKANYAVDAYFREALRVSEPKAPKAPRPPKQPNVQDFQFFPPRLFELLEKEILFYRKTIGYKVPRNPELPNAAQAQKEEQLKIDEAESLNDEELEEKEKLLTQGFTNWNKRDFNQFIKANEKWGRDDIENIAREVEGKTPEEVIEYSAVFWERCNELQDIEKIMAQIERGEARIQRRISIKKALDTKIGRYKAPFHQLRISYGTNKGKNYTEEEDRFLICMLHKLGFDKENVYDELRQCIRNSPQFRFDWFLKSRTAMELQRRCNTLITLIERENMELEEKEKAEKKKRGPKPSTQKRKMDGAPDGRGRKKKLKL

| Substance | binding |
| --- | --- |
| Abcf1 (from UniProt Q8NE71 1-845) | binds |
| Acacb (human (endogenous in HEK293T)) | binds |
| Amot (from UniProt Q4VCS5 1-1084) | binds |
| Arrb2 (from UniProt P32121 1-409) | binds |
| Baz1a (from UniProt Q9NRL2 1-1556) | binds |
| Baz2a (from UniProt Q9UIF9 1-1905) | binds |
| Bms1 (from UniProt Q14692 1-1282) | binds |
| C1qbp (from UniProt Q07021 74-282) | binds |
| Cad (from UniProt P27708 1-2225) | binds |
| Cand1 (from UniProt Q86VP6 1-1230) | binds |
| Cblb (from UniProt Q13191 1-982) | binds |
| Cbx2 (from UniProt Q14781 1-532) | binds |
| Cdk11b (from UniProt P21127 1-795) | binds |
| Chd1 (from UniProt O14646 1-1710) | binds |
| Chd7 (from UniProt Q9P2D1 1-2997) | binds |
| Chd8 (from UniProt Q9HCK8 1-2581) | binds |
| Copb1 (from UniProt P53618 1-953) | binds |
| Csnk2b (from UniProt P67870 1-215) | binds |
| Ddx5 (from UniProt P17844 1-614) | binds |
| Ddx10 (from UniProt Q13206 1-875) | binds |
| Ddx17 (from UniProt Q92841 1-729) | binds |

| Substance | binding |
| --- | --- |
| Dnaja1 (from UniProt P31689 1-397) | binds |
| Dpm1 (from UniProt O60762 1-260) | binds |
| Dsc1 (from UniProt Q08554) | binds |
| Dsc3 (from UniProt Q14574) | binds |
| Dsg1a (human (endogenous in HEK293T)) | binds |
| Dsg2 (from UniProt Q14126 50-1118) | binds |
| Dsp (from UniProt P15924 1-2871) | binds |
| Eif1a (from UniProt P47813 1-144) | binds |
| Eif5 (from UniProt P55010 1-431) | binds |
| Ep300 (from UniProt Q09472 1-2414) | binds |
| Epb4.1 (from UniProt P11171 1-864) | binds |
| Epb4.1l2 (from UniProt O43491 1-1005) | binds |
| Epb4.1l5 (from UniProt Q9HCM4 1-733) | binds |
| Ercc3 (from UniProt P19447 1-782) | binds |
| Ewsr1 (from UniProt Q01844 1-656) | binds |
| Exoc2 (from UniProt Q96KP1 1-924) | binds |
| Fastkd2 (human (endogenous in HEK293T)) | binds |
| Flna (from UniProt P21333 1-2647) | binds |
| Gapdh (from UniProt P04406 1-335) | binds |
| Gfpt1 (from UniProt Q06210 1-699) | binds |
| Heatr1 (from UniProt Q9H583 1-2144) | binds |

| Substance | binding |
| --- | --- |
| Hnrnpk (from UniProt P61978 1-463) | binds |
| Hsp90ab1 (from UniProt P08238 1-724) | binds |
| Hspa5 (from UniProt P11021 19-654) | binds |
| Hspa8 (from UniProt P11142 1-646) | binds |
| Hspa9 (from UniProt P38646 47-679) | binds |
| Hspd1 (from UniProt P10809 27-573) | binds |
| Irak1 (from UniProt P51617 1-712) | binds |
| Krt2 (from UniProt P35908 1-639) | binds |
| Krt6a (from UniProt P02538 1-564) | binds |
| Krt10 (from UniProt P13645 1-584) | binds |
| Krt16 (from UniProt P08779 1-473) | binds |
| Krt17 (from UniProt Q04695 1-432) | binds |
| Lmnb1 (from UniProt P20700 1-586) | binds |
| Mki67 (from UniProt P46013 1-3256) | binds |
| Ndufaf4 (from UniProt Q9P032 1-175) | binds |
| Nkap (from UniProt Q8N5F7 1-415) | binds |
| Notch4 (from UniProt Q99466 24-2003) | binds |
| Nsa2 (from UniProt O95478 1-260) | binds |
| Nsf (from UniProt P46459 1-744) | binds |
| Parp1 (from UniProt P09874 1-1014) | binds |
| Pcbp1 (from UniProt Q15365 1-356) | binds |

| Substance | binding |
| --- | --- |
| Pold1 (from UniProt P28340 1-1107) | binds |
| Pole (from UniProt Q07864 1-2286) | binds |
| Prkdc (from UniProt P78527 1-4128) | binds |
| Prmt5 (from UniProt O14744 1-637) | binds |
| Prpf40a (from UniProt O75400 1-957) | binds |
| Prss1 (from UniProt P07477) | binds |
| Rad18 (from UniProt Q9NS91 1-495) | binds |
| Rbbp4 (from UniProt Q09028 1-425) | binds |
| Rfc5 (from UniProt P40937 1-340) | binds |
| Rhot1 (from UniProt Q8IXI2 1-618) | binds |
| Rif1 (from UniProt Q5UIP0 1-2472) | binds |
| Ruvbl1 (from UniProt Q9Y265 1-456) | binds |
| Sbf1 (from UniProt O95248 1-1868) | binds |
| Senp3 (from UniProt Q9H4L4 1-574) | binds |
| Sf3b1 (from UniProt O75533 1-1304) | binds |
| Slk (from UniProt Q9H2G2 1-1235) | binds |
| Smarca1 (from UniProt P28370 1-1042) | binds |
| Smarca4 (from UniProt P51532 1-1647) | binds |
| Smarcd1 (from UniProt Q96GM5 1-515) | binds |
| Snrnp200 (from UniProt O75643 1-2136) | binds |

Second part, the substance after the results:

| binding | Substance |
| --- | --- |
| binds | Actl6a (from UniProt O96019 1-429) |
| binds | Aifm1 (from UniProt O95831) |
| binds | Atp5a1 (from UniProt P25705 44-553) |
| binds | Bop1 (from UniProt Q14137 1-746) |
| binds | Brd9 (from UniProt Q9H8M2 1-597) |
| binds | Cecr5 (from UniProt Q9BXW7 24-423) |
| binds | Chd4 (from UniProt Q14839 1-1912) |
| binds | Copa (from UniProt P53621 1-1224) |
| binds | Csnk2a1 (from UniProt P68400 1-391) |
| binds | Ddx3x (from UniProt O00571 1-662) |
| binds | Dhx15 (from UniProt O43143 1-795) |
| binds | Dnaja3 (human (endogenous in HEK293T)) |
| binds | Eef1g (from UniProt P26641 1-437) |
| binds | Exoc3 (from UniProt O60645 1-745) |
| binds | Exoc4 (from UniProt Q96A65 1-974) |
| binds | Fanci (from UniProt Q9NVI1 1-1328) |
| binds | Fus (from UniProt P35637 1-526) |
| binds | Gcn1l1 (from UniProt Q92616 1-2671) |
| binds | Hdac2 (from UniProt Q92769 1-488) |
| binds | Hnrnph1 (from UniProt P31943 1-449) |
| binds | Ilk (from UniProt Q13418 1-452) |

| binding | Substance |
| --- | --- |
| binds | Krt1 (from UniProt P04264 1-644) |
| binds | Krt5 (from UniProt P13647 1-590) |
| binds | Lyar (from UniProt Q9NX58 1-379) |
| binds | Map2k7 (from UniProt O14733 1-419) |
| binds | Mmtag2 (from UniProt Q9BU76 1-263) |
| binds | Myh9 (from UniProt P35579 1-1960) |
| binds | Ncln (from UniProt Q969V3 43-563) |
| binds | Nop56 (from UniProt O00567 1-594) |
| binds | Osbpl3 (from UniProt Q9H4L5 1-887) |
| binds | Pik3r4 (from UniProt Q99570 1-1358) |
| binds | Polrmt (from UniProt O00411 42-1230) |
| binds | Prpf4b (human (endogenous in HEK293T)) |
| binds | Rad21 (from UniProt O60216 1-631) |
| binds | Rfc3 (from UniProt P40938 1-356) |
| binds | Rsbn1 (from UniProt Q5VWQ0 1-802) |
| binds | Smarca5 (from UniProt O60264 1-1052) |
| binds | Smarcb1 (from UniProt Q12824 1-385) |
| binds | Smarcc1 (from UniProt Q92922 1-1105) |
| binds | Smarce1 (from UniProt Q969G3 1-411) |
| binds | Smc3 (from UniProt Q9UQE7 1-1217) |
| binds | Sptan1 (from UniProt Q13813 1-2472) |

Source: publication PMC7956269
